Measured data: PubChem BioAssay AID743448 (Peter MacCallum Cancer Centre, 2014)

Assay: 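Test whether knock-downs sensitising to vorinostat hold across several colon lines but not etoposide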 (follow-up of hits)
Cells: four human colon cancer cell lines: HCT116-VR (vorinostat-resistant HCT116 derivative), SW480, SW620 and LIM1215
Reagent: siRNA pool against human genes, 40 nM siRNA pool
Timing: drug added two days after transfection, read one day later
Conditions: vorinostat 2.5 µM on one half of each plate, etoposide 5 µM on the other half
Measurement: 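Caspase luminescence and viability fluorescence, each expressed relative to mock transfection and also as robust z-scores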
Scale: caspase ratio to mock: higher = more caspase activity than mock; viability ratio to mock: higher = more live cells than mock; caspase robust z-score: higher = more caspase activity, more apoptosis; viability robust z-score: higher = more live cells
Hit rule: 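a row is a hit if caspase relative to mock is 1.6 or above or viability relative to mock is 0.75 or below; wells dying heavily without drug are not called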
Calls: active = caspase or viability hit in this panel; inactive = no change, or unhealthy well
Here is one part, drawn at random, of 106 reagents tested. 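Calls are per line and drug panel including etoposide, not vorinostat-specific; gene picks needed hits in two or more extra lines with vorinostat versus etoposide.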 Unmarked entries are inactive. Reagent sequences are not shown.

caspase ratio to mock | viability ratio to mock | caspase robust z-score | viability robust z-score | target gene | cell line and drug panel
2.5 (active) | 0.64 | 0.52 | -1.9 | EIF2B2 (eukaryotic translation initiation factor 2B subunit beta) | LIM1215 cells with etoposide
1.93 (active) | 0.86 | -0.21 | -0.43 | EIF2B2 (eukaryotic translation initiation factor 2B subunit beta) | LIM1215 cells with vorinostat
1.48 (active) | 0.65 | -0.46 | -1.49 | EIF2B2 (eukaryotic translation initiation factor 2B subunit beta) | SW480 cells with etoposide
1.42 | 0.88 | -0.61 | 0.04 | EIF2B2 (eukaryotic translation initiation factor 2B subunit beta) | SW480 cells with vorinostat
1.24 (active) | 0.65 | 0.19 | -2.49 | EIF2B2 (eukaryotic translation initiation factor 2B subunit beta) | SW620 cells with etoposide
1.34 | 0.82 | -0.06 | -0.68 | EIF2B2 (eukaryotic translation initiation factor 2B subunit beta) | SW620 cells with vorinostat
0.96 (active) | 0.68 | -1.02 | -1.52 | EIF2B2 (eukaryotic translation initiation factor 2B subunit beta) | vorinostat-resistant HCT116 cells with etoposide
1.52 | 0.84 | -0.74 | -0.48 | EIF2B2 (eukaryotic translation initiation factor 2B subunit beta) | vorinostat-resistant HCT116 cells with vorinostat
1.75 (active) | 1.12 | -0.41 | 1.38 | THAP1 (THAP domain containing 1) | LIM1215 cells with etoposide
1.54 | 1.09 | -0.72 | 1.31 | THAP1 (THAP domain containing 1) | LIM1215 cells with vorinostat
1.08 | 1.04 | -0.74 | 1.08 | THAP1 (THAP domain containing 1) | SW480 cells with etoposide
1.53 | 1 | -0.38 | 0.76 | THAP1 (THAP domain containing 1) | SW480 cells with vorinostat
0.96 | 1.04 | -0.48 | 1.6 | THAP1 (THAP domain containing 1) | SW620 cells with etoposide
1.39 | 0.98 | 0.08 | 0.45 | THAP1 (THAP domain containing 1) | SW620 cells with vorinostat
1.44 | 1.09 | -0.36 | 0.97 | THAP1 (THAP domain containing 1) | vorinostat-resistant HCT116 cells with etoposide
1.39 | 0.95 | -0.91 | 0.21 | THAP1 (THAP domain containing 1) | vorinostat-resistant HCT116 cells with vorinostat
1.21 | 0.94 | -0.97 | 0.05 | POLR2I (RNA polymerase II subunit I) | LIM1215 cells with etoposide
0.92 | 1 | -1.48 | 0.66 | POLR2I (RNA polymerase II subunit I) | LIM1215 cells with vorinostat
3.54 (active) | 0.88 | 1.15 | 0.08 | POLR2I (RNA polymerase II subunit I) | SW480 cells with etoposide
2.56 (active) | 0.9 | 1.83 | 0.13 | POLR2I (RNA polymerase II subunit I) | SW480 cells with vorinostat
1.18 | 0.84 | 0.05 | -0.49 | POLR2I (RNA polymerase II subunit I) | SW620 cells with etoposide
1.9 (active) | 1.01 | 1.54 | 0.68 | POLR2I (RNA polymerase II subunit I) | SW620 cells with vorinostat
2.64 (active) | 0.83 | 1.22 | -0.54 | POLR2I (RNA polymerase II subunit I) | vorinostat-resistant HCT116 cells with etoposide
2.56 (active) | 0.74 | 0.46 | -1.1 | POLR2I (RNA polymerase II subunit I) | vorinostat-resistant HCT116 cells with vorinostat
3.82 | 0.66 | 2.01 | -1.73 | NUP93 (nucleoporin 93) | LIM1215 cells with etoposide
3.34 | 0.61 | 1.64 | -2.29 | NUP93 (nucleoporin 93) | LIM1215 cells with vorinostat
1.45 | 0.8 | -0.43 | -0.46 | NUP93 (nucleoporin 93) | SW480 cells with etoposide
1.12 | 0.93 | -1.27 | 0.32 | NUP93 (nucleoporin 93) | SW480 cells with vorinostat
1.05 | 0.87 | -0.28 | -0.18 | NUP93 (nucleoporin 93) | SW620 cells with etoposide
0.98 | 0.92 | -1.06 | 0.06 | NUP93 (nucleoporin 93) | SW620 cells with vorinostat
2.25 (active) | 0.66 | 0.68 | -1.66 | NUP93 (nucleoporin 93) | vorinostat-resistant HCT116 cells with etoposide
2.37 (active) | 0.77 | 0.3 | -0.92 | NUP93 (nucleoporin 93) | vorinostat-resistant HCT116 cells with vorinostat

Entries above whose target name starts with P or p (8):
caspase ratio to mock | viability ratio to mock | caspase robust z-score | viability robust z-score | target gene | cell line and drug panel
1.21 | 0.94 | -0.97 | 0.05 | POLR2I (RNA polymerase II subunit I) | LIM1215 cells with etoposide
0.92 | 1 | -1.48 | 0.66 | POLR2I (RNA polymerase II subunit I) | LIM1215 cells with vorinostat
3.54 (active) | 0.88 | 1.15 | 0.08 | POLR2I (RNA polymerase II subunit I) | SW480 cells with etoposide
2.56 (active) | 0.9 | 1.83 | 0.13 | POLR2I (RNA polymerase II subunit I) | SW480 cells with vorinostat
1.18 | 0.84 | 0.05 | -0.49 | POLR2I (RNA polymerase II subunit I) | SW620 cells with etoposide
1.9 (active) | 1.01 | 1.54 | 0.68 | POLR2I (RNA polymerase II subunit I) | SW620 cells with vorinostat
2.64 (active) | 0.83 | 1.22 | -0.54 | POLR2I (RNA polymerase II subunit I) | vorinostat-resistant HCT116 cells with etoposide
2.56 (active) | 0.74 | 0.46 | -1.1 | POLR2I (RNA polymerase II subunit I) | vorinostat-resistant HCT116 cells with vorinostat

The results go on:
caspase ratio to mock | viability ratio to mock | caspase robust z-score | viability robust z-score | target gene | cell line and drug panel
2.68 (active) | 0.9 | 0.48 | -0.17 | CNOT3 (CCR4-NOT transcription complex subunit 3) | LIM1215 cells with etoposide
1.58 | 1.15 | -0.68 | 1.75 | CNOT3 (CCR4-NOT transcription complex subunit 3) | LIM1215 cells with vorinostat
4.48 (active) | 0.96 | 1.86 | 0.6 | CNOT3 (CCR4-NOT transcription complex subunit 3) | SW480 cells with etoposide
2.41 (active) | 0.9 | 1.5 | 0.1 | CNOT3 (CCR4-NOT transcription complex subunit 3) | SW480 cells with vorinostat
1.21 | 0.96 | 0.14 | 0.64 | CNOT3 (CCR4-NOT transcription complex subunit 3) | SW620 cells with etoposide
1.6 (active) | 1.04 | 0.69 | 0.9 | CNOT3 (CCR4-NOT transcription complex subunit 3) | SW620 cells with vorinostat
3.17 (active) | 1 | 1.88 | 0.45 | CNOT3 (CCR4-NOT transcription complex subunit 3) | vorinostat-resistant HCT116 cells with etoposide
3.51 (active) | 1.04 | 1.64 | 0.74 | CNOT3 (CCR4-NOT transcription complex subunit 3) | vorinostat-resistant HCT116 cells with vorinostat
2.43 (active) | 0.85 | 0.33 | -0.5 | NUP54 (nucleoporin 54) | LIM1215 cells with etoposide
1.86 (active) | 1.01 | -0.32 | 0.7 | NUP54 (nucleoporin 54) | LIM1215 cells with vorinostat
1.41 | 0.78 | -0.47 | -0.56 | NUP54 (nucleoporin 54) | SW480 cells with etoposide
1.49 | 0.88 | -0.46 | -0.01 | NUP54 (nucleoporin 54) | SW480 cells with vorinostat
0.97 | 0.82 | -0.48 | -0.62 | NUP54 (nucleoporin 54) | SW620 cells with etoposide
1.14 | 0.82 | -0.62 | -0.68 | NUP54 (nucleoporin 54) | SW620 cells with vorinostat
1.66 (active) | 0.76 | -0.1 | -0.99 | NUP54 (nucleoporin 54) | vorinostat-resistant HCT116 cells with etoposide
2.58 (active) | 0.82 | 0.57 | -0.62 | NUP54 (nucleoporin 54) | vorinostat-resistant HCT116 cells with vorinostat
3.94 (active) | 0.78 | 2 | -0.91 | SLU7 (spliceosome associated SLU7) | LIM1215 cells with etoposide
3.33 (active) | 0.66 | 1.54 | -1.88 | SLU7 (spliceosome associated SLU7) | LIM1215 cells with vorinostat
2.35 (active) | 0.7 | 0.2 | -1.12 | SLU7 (spliceosome associated SLU7) | SW480 cells with etoposide
1.69 (active) | 0.65 | -0.04 | -1.47 | SLU7 (spliceosome associated SLU7) | SW480 cells with vorinostat
1.31 (active) | 0.66 | 0.34 | -2.29 | SLU7 (spliceosome associated SLU7) | SW620 cells with etoposide
1.14 (active) | 0.63 | -0.58 | -2.01 | SLU7 (spliceosome associated SLU7) | SW620 cells with vorinostat
1.47 (active) | 0.71 | -0.34 | -1.36 | SLU7 (spliceosome associated SLU7) | vorinostat-resistant HCT116 cells with etoposide
1.49 (active) | 0.62 | -0.78 | -1.82 | SLU7 (spliceosome associated SLU7) | vorinostat-resistant HCT116 cells with vorinostat
